{"source": "PubChem BioAssay AID1347423", "about": "(Functional Genomics Laboratory (NCATS/FGL), 2020)", "note": "In all, about 52,000 sequences went through this assay and about 210 (0.4%) were called active.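 Rule for the calls: active = gene whose silencing raises cell survival under the drug, median off-target-corrected z-score across its silencing RNAs 2 or more; inactive = the rest.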 Some of the results follow."}
{"assay": "Resistance to Poly (ADP-Ribose) Polymerase inhibitor: Gene Identification via Genome-wide siRNA Screen", "details": "mouse BRCA2 R2336H ES cells, olaparib, CellTiter-Glo viability; stronger effect = higher value", "outline": "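Genome-wide siRNA screen (3 siRNAs/gene, 20 nM) in mouse ES cells carrying hypomorphic BRCA2 R2336H; olaparib 500 nM added 48 h post-transfection, CellTiter-Glo viability 72 h later. Normalized to plate-median negative control; MAD z-scores, gene median, seed-adjusted.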"}
{"sequence": "GGAGUUCUCGGACUUUCUGTT against C87436", "z-score": "inactive: 1.26"}
{"sequence": "GGCAGACCGUGUUAAAAUGTT against Dnajc2", "z-score": "inactive: 0.12"}
{"sequence": "GGAAUCAGGAAUGCUACUUTT against AW550801", "z-score": "inactive: -2.12"}
{"sequence": "GGUAUUUCACAAUCUUCUCTT against Pmpca", "z-score": "inactive: -0.0729"}
{"sequence": "GGCGUACAACAAAAAGCGGTT against AI467503", "z-score": "inactive: -0.459"}
{"sequence": "GGCUUGCAAAGUGAAUCCUTT against Gls2", "z-score": "inactive: 1.43"}
{"sequence": "GCUGCUAAGGAAUUUAAAATT against Topors", "z-score": "inactive: 0.0703"}
{"sequence": "GCAUGAAAAGCCUCUAUAUTT against Cxcl15", "z-score": "inactive: 0.74"}
{"sequence": "GGUUGUCUGUCUGUCCAUCTT against 2900024D24Rik", "z-score": "inactive: 1.42"}
{"sequence": "GGCAAGCACACAAUGAUGCTT against 2310076L09Rik", "z-score": "inactive: -1.02"}
{"sequence": "GGAUCCCAAGUUCAAAGCCTT against Rfxap", "z-score": "inactive: 0.409"}
{"sequence": "CCUCUCUGAAAACAUGUCUTT against Sntb2", "z-score": "inactive: 1.71"}
{"sequence": "GGAAAUAUCCUAAACAGAATT against Gdpd2", "z-score": "inactive: -0.0131"}
{"sequence": "GUUGGACUAAGCGACCUUGTT against Rps29", "z-score": "inactive: -2.89"}
{"sequence": "GGUGUUUCAUAAGAAGGAATT against 1700010H22Rik", "z-score": "inactive: -0.206"}
{"sequence": "GCUCAUGAAACUUUUGAACTT against Snf1lk", "z-score": "inactive: 1.39"}
{"sequence": "GGUACAUUUUAAACAAUGCTT against Sdfr1", "z-score": "inactive: 0.487"}
{"sequence": "GGGAUGUGUAUUUAAUUACTT against Nr6a1", "z-score": "inactive: -1.16"}
{"sequence": "GGAAGACCCUAAUCUAGUCTT against Cox5b", "z-score": "inactive: -0.198"}
{"sequence": "GGUGAAUUCUCAUGCAUGGTT against Timp2", "z-score": "inactive: 1.1"}
{"sequence": "GGAAACAAGGGACUCUGUATT against Col4a4", "z-score": "inactive: -2.3"}
{"sequence": "AAAGACUGUGACCUCUGGGTT against Tgoln2", "z-score": "inactive: -2.31"}
{"sequence": "GGCUCCUGGAAUUCUUACGTT against Snx11", "z-score": "inactive: -0.695"}
{"sequence": "GGGCAGUCCUCGUUUCUUATT against Rad52b", "z-score": "inactive: -0.932"}
{"sequence": "CGCAGACAACAGAUAAGAATT against Gp38", "z-score": "inactive: 1.05"}
{"sequence": "GCCUCUGGUGGAAGUAUACTT against Sec14l3", "z-score": "inactive: -1.83"}
{"sequence": "UCAUUGGUCCAGCCUAUAGTT against A330070K13Rik", "z-score": "inactive: 0.0754"}
{"sequence": "CCCUGUUGAUGAACAAAUCTT against Ddt", "z-score": "inactive: 0.886"}
{"sequence": "GCAAACCUCAAUCUUGAAATT against Knsl7", "z-score": "inactive: 1.19"}
{"sequence": "GGCUUCCAAAACAAAUCAATT against Rgn", "z-score": "inactive: -0.721"}
{"sequence": "GGCAGGAAAACAAAAGGGATT against Cobll1", "z-score": "inactive: 0.402"}
{"sequence": "GGUGCAGACCAACAAGACATT against C630010N09", "z-score": "inactive: -1.96"}
{"sequence": "CCAUCUAUUACGGAACGGGTT against Olfr324", "z-score": "inactive: 1.62"}
{"sequence": "GGGAAAGUUUUGUUCUGUATT against Vil2", "z-score": "inactive: -0.662"}
{"sequence": "GCAUUCAUGAAAGUGUUAGTT against Olfr164", "z-score": "inactive: 1.23"}
{"sequence": "GGUAGACUAUCUGGAGACATT against Olfml3", "z-score": "inactive: 0.367"}
{"sequence": "GGUGAAGUUACAGUCAAAUTT against Nolc1", "z-score": "inactive: 1.3"}
{"sequence": "GGUUACCUGUAGAUGAUUCTT against Slc4a1ap", "z-score": "inactive: 1.28"}
{"sequence": "GUAGGAUAUACCAUCUACATT against Olfr700", "z-score": "inactive: 0.929"}
{"sequence": "GCAUUUUAGAAGGUUAUCGTT against Dmrt2", "z-score": "inactive: 1.04"}
{"sequence": "GGUACAGAACAUGUUCUAATT against Klf4", "z-score": "inactive: -0.884"}
{"sequence": "CGAGAUUCUGCCUUUUCAGTT against Tcfcp2", "z-score": "inactive: 0.487"}
{"sequence": "CCUCGGUAUUAACGUGGAATT against Dmrta2", "z-score": "inactive: 1.71"}
{"sequence": "GCUCGACAGCUACAGAGUUTT against D4Ertd478e", "z-score": "inactive: -1.29"}
{"sequence": "CCGGCUUUGAAGUCAUUACTT against Slc4a3", "z-score": "inactive: -1.18"}
{"sequence": "GGACUGUGCAUUUUCAGGUTT against Sumo1", "z-score": "inactive: -0.183"}
{"sequence": "GGAAGCCCUUAUGGACGAATT against Ang2", "z-score": "inactive: 0.0956"}
{"sequence": "GGAGAUACAGGAUAUUAUUTT against Nme5", "z-score": "inactive: 0.353"}
{"sequence": "GCUAAAUUUCCCAUAGGAATT against Pmch", "z-score": "inactive: 0.289"}
{"sequence": "GGAGCUAUUUUAGAUUAUGTT against 1100001D10Rik", "z-score": "inactive: -0.514"}
{"sequence": "GGACCAAGCCACCAAAACUTT against V1rg7", "z-score": "inactive: -0.124"}
{"sequence": "GGAUCUUUAAGUUUUCCCGTT against Kcnd2", "z-score": "inactive: 1.17"}
{"sequence": "GCCGACAGUUAAGUUUCUCTT against Supt3h", "z-score": "inactive: 1.93"}
{"sequence": "UCUGGGUGUAAUGAAGGAGTT against BC015286", "z-score": "inactive: -1.47"}
{"sequence": "CCUACCGCUAUGUAGUCAGTT against Dnase1", "z-score": "inactive: 1.32"}
{"sequence": "GGAACUGGAUGAAAACGGATT against S100a1", "z-score": "inactive: 0.674"}
{"sequence": "GGCUAUUGUGGAGAAGAUCTT against Gif", "z-score": "inactive: -1.75"}
{"sequence": "GCAGCACCAUCACUAGUGUTT against Ndufs6", "z-score": "inactive: 0.0314"}
{"sequence": "CCACACUUAGUCAUUUUCUTT against BC034902", "z-score": "inactive: 0.335"}
{"sequence": "GGGCAUUGGAUGUGCUGAATT against Clic3", "z-score": "inactive: -0.17"}
{"sequence": "GGUGCCUACCAUGAAGAACTT against 1700010D01Rik", "z-score": "inactive: 0.964"}
{"sequence": "GGAAAUCCAACUUCUUUCATT against Ebf2", "z-score": "inactive: 0.757"}
{"sequence": "GCUAGGAAGAGAGUGAUCUTT against Alg1", "z-score": "inactive: -0.838"}
{"sequence": "GCCAUUGGAGUAUAUCUUGTT against Olfr873", "z-score": "inactive: 0.963"}
{"sequence": "GGAAACUUUUGAUUGUAACTT against 2810021J22Rik", "z-score": "inactive: 0.643"}
{"sequence": "GCACUUUAAGAGACAAUGUTT against Gpr63", "z-score": "inactive: 0.893"}
{"sequence": "GCUACUAUCACAUAUGCACTT against Olfr1122", "z-score": "inactive: 0.514"}
{"sequence": "GGUGGUACCAAGUACAACUTT against Deaf1", "z-score": "inactive: 1.94"}
{"sequence": "GGCGUGAUAGCUGGACUUATT against 1110012L19Rik", "z-score": "inactive: -0.946"}
{"sequence": "GGAAAGUCGAUAAUGACAATT against Wdr12", "z-score": "inactive: -2.19"}
{"sequence": "GGUUAUCAAAGCUAAGAAUTT against AI447904", "z-score": "inactive: 0.0486"}
{"sequence": "GGCAGACAAUCAAUGAAAUTT against Padi4", "z-score": "inactive: 0.944"}
{"sequence": "GCAAAAGUAGAAGAACAACTT against Ccnt1", "z-score": "inactive: -0.833"}
{"sequence": "GGUGAAGAGCCACAAGUUCTT against Prkcc", "z-score": "inactive: -0.101"}
{"sequence": "GGAGCUCUGUGAGAACGAUTT against Suv420h1", "z-score": "inactive: -1.46"}
{"sequence": "GCGGCAUAAGUCCAAGCACTT against Crk7", "z-score": "inactive: -1.76"}
{"sequence": "GCCAGUAAGGAAUUCAACUTT against C3", "z-score": "inactive: 0.87"}
{"sequence": "GGCAAAUGUGGCCGUGUUUTT against Ccne1", "z-score": "inactive: 1.67"}
{"sequence": "GGGUUAUCCGUAUGUUUUCTT against Olfr557", "z-score": "inactive: -0.646"}
{"sequence": "GGGCUACUCUCUCAGGAUCTT against Dedd2", "z-score": "inactive: 0.93"}
{"sequence": "GGCCAGUGGGAAGUGAAGATT against Sec13l1", "z-score": "inactive: -1.15"}
{"sequence": "GGUGGAGAAAAAUGCAACATT against Clnk", "z-score": "inactive: 0.0368"}
{"sequence": "GGUUUGAAAAGCGAAUUUATT against Vps4a", "z-score": "inactive: 3.37"}
{"sequence": "GGCGCAGAGCAAAGGAUAUTT against Pcdha1", "z-score": "inactive: -0.301"}
{"sequence": "GGCAUUAGAGCAGAGUCGUTT against Trmt1", "z-score": "inactive: 0.629"}
{"sequence": "GGGAGUUUCACUGAAGCCATT against Prkch", "z-score": "inactive: 0.395"}
{"sequence": "GGUGUAUUUCACGGGACCATT against Rela", "z-score": "inactive: 1.76"}
{"sequence": "GGGAAAAAGAACAAAAGCATT against 2310044P18Rik", "z-score": "inactive: -0.501"}
{"sequence": "GGAGGUGAUUUCGGGUAACTT against Ddr1", "z-score": "inactive: -0.515"}
{"sequence": "GCCCAAUAUACUCUAAGGGTT against Cdh20", "z-score": "inactive: 0.338"}
{"sequence": "GGCAAUUCCCAGCACGAUGTT against Usp43", "z-score": "inactive: 0.335"}
{"sequence": "GGAUAUGGAGACACAGAUGTT against Mic2l1", "z-score": "inactive: 0.184"}
{"sequence": "GCACAGUAGUUCUUGCAUCTT against Olfr891", "z-score": "inactive: 0.685"}
{"sequence": "GCAUAUCUAUAACAGAGCCTT against Ear11", "z-score": "inactive: 0.31"}
{"sequence": "CCAAAUAACUUUGUUGGCATT against Srrp", "z-score": "inactive: -0.579"}
{"sequence": "GGCAUUGUGAAAUCCUAUUTT against Lhx5", "z-score": "inactive: 0.897"}
{"sequence": "GCUUCAAAAGGACAGGUCATT against Galnt13", "z-score": "inactive: -0.35"}
{"sequence": "GCUAAUGACCUGUGCCAAGTT against Sftpb", "z-score": "inactive: 0.641"}
{"sequence": "GGUUGUAAAAGACCAUUAATT against Siat4c", "z-score": "inactive: 1.04"}
{"sequence": "CCUGGAGAGCAUUGACAUCTT against Irx1", "z-score": "inactive: 0.0215"}
{"sequence": "CCUUAUGGUGCGCAUUAAATT against Kcnq1", "z-score": "inactive: 0.343"}
{"sequence": "GCUUAAUAAUUUCAUCCAGTT against Brms1l", "z-score": "inactive: -0.737"}
{"sequence": "GGGUUCGAGGGUUCUUGUGTT against Gna12", "z-score": "inactive: -2.64"}
{"sequence": "GCGCACAAAAAACAUGAUATT against 4921526K24Rik", "z-score": "inactive: 0.0286"}
{"sequence": "GGAGGGUCGGCUUAUAAUUTT against 4930523C11Rik", "z-score": "inactive: 0.97"}
{"sequence": "GCAGUUACACUGAAUACAUTT against Kctd8", "z-score": "inactive: 0.565"}
